In one test the target is CD22 on K562-CD22 cells (UniProt P20273). In words: flow cytometry on K562-CD22 cells, antibody from 10 ug/mL, 3-fold, 9 points, PE anti-mouse IgG. On the technique in general: Flow cytometry measures light scatter and fluorescence of single cells or particles in a stream.
Test [1] deals with 人CD22胞外段缀合His标签 (hCD22-His, ACRO, CD2-H52H8) (human) (UniProt P20273). The test is described as follows: ELISA, hCD22-His coated at 2 ug/ml, 3-fold antibody dilutions. For orientation: In an ELISA, binding on a coated surface is turned into a signal by an enzyme label.

By UniProt entry, the sequences of proteins in these tests, tags left out. Where a name states a change or a piece, a line headed by the entry shows the natural chain unless it says otherwise. Residues count along the entry.
UniProt P20273: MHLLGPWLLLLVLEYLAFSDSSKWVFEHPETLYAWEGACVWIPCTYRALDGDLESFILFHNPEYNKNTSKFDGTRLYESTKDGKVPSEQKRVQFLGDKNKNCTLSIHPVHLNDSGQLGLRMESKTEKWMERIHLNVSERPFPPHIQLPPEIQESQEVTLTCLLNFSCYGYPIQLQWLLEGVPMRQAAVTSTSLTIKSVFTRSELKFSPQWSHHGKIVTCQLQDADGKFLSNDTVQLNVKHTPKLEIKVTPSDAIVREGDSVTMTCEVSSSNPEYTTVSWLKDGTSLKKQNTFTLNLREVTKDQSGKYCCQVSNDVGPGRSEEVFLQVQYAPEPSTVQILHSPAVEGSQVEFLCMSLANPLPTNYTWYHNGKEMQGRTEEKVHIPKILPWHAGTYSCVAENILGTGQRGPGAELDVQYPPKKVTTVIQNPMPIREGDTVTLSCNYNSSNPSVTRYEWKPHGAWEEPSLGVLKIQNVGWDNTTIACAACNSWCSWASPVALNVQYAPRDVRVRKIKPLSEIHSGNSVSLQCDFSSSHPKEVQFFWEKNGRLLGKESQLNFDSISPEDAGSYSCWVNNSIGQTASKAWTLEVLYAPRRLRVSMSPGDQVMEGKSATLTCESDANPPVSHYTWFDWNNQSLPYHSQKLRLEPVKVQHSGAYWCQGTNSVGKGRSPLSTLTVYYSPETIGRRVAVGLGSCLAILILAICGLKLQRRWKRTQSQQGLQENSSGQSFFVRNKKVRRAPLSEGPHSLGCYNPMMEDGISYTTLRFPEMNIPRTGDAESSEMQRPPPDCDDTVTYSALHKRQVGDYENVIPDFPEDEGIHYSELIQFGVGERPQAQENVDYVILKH
CD22 on K562-CD22 cells: residues 20-847 of P20273
人CD22胞外段缀合His标签 (hCD22-His, ACRO, CD2-H52H8): residues 20-687 of P20273

These are yes or no findings as the source states them, for the method shown. Some entries that bind do so weakly or less than the wild type.

B1: 5CD22-111-1-C3 (antibody, mouse IgG1, kappa, V domains shown)
VH: EVKLEESGGGLVQPGGFMKLSCVASGFTFSNYWMNWVRQSPERGLEWVAEIRLKSNDYATHYAESVKGRFTISRDDSKSNVYLQMNNLRAEDTGIYYCTRVYYYGRDYAMDYWGQGTSVTVSS
VL: QIVLTQSPAIMSASLGERVTMTCTASSSVSSIYLHWYQQKPGSSPKLWIYSTSNLASGVPGRFSGSGSGTSYSLTISSMEAEDAATYYCHQYHRSPRTFGGGTKLEIKR
B1: in the test with CD22 on K562-CD22 cells, the binding result was “binds”.

B2: FC2-045 (antibody, mouse IgG2a, kappa, V domains shown)
VH: QVQLQQSGAELVRPGASVTLSCKASGYTFTDYEMHWVKQTLVHGLEWIGAIDPETGATAYNQKFKGKATLTADKSSSTAYMELRSLTSEDSAVYYCTRSNWDGWFAYWGQGTLVTVSA
VL: DIQMTQSSSSFSVSLGDRVTITCKASEDIYNRLAWYQQKPGSAPRLLISGATSLETGVPSRFSGSGSGKDYTLNITSLQTEDVATYYCQQYWSSWTFGGGTKLEIKR
As for B2, the binding entry (in test [1]; in the test with CD22 on K562-CD22 cells) was “binds” throughout.

Values taken from patent publication CN114106176A.
